Our source for the binding values is publication PMC6823460.

Sequences of proteins named here, by UniProt entry; tags and fusion partners are left off. A change or cut given only in a name is not applied to a line headed by its entry.
UniProt P15692: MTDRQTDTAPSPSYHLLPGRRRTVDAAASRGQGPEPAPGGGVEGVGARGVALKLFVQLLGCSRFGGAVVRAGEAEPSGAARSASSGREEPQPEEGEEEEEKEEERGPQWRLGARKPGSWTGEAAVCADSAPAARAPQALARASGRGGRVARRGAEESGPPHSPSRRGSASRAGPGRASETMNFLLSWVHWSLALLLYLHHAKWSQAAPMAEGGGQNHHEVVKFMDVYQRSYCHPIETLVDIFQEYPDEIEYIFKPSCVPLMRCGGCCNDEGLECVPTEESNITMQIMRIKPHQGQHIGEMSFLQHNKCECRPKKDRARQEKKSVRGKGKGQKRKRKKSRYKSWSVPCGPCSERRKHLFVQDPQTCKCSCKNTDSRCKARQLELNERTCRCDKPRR

Results are given in words; binding and its absence hold for the method and conditions named. Binding seen in cells or lysates may run through a third protein. Binding calls can cover weak binding; strength is not graded here.

In the experiment the target is VEGFA, endogenous in human placental tissue (human (endogenous in placental tissue)) (UniProt P15692). Kind of experiment: co-IP; human placental tissue lysate (1 mg protein); anti-VEGFA antibody overnight at 4 °C, protein A/G agarose; immunoblot with anti-calpain-6. (In general: Immunoblotting shows a protein as a band on a membrane.)

B1: calpain-6, endogenous in human placental tissue (protein, UniProt Q9Y6Q1 1-641)
chain: MGPPLKLFKNQKYQELKQECIKDSRLFCDPTFLPENDSLFYNRLLPGKVVWKRPQDICDDPHLIVGNISNHQLTQGRLGHKPMVSAFSCLAVQESHWTKTIPNHKEQEWDPQKTEKYAGIFHFRFWHFGEWTEVVIDDLLPTINGDLVFSFSTSMNEFWNALLEKAYAKLLGCYEALDGLTITDIIVDFTGTLAETVDMQKGRYTELVEEKYKLFGELYKTFTKGGLICCSIESPNQEEQEVETDWGLLKGHTYTMTDIRKIRLGERLVEVFSAEKVYMVRLRNPLGRQEWSGPWSEISEEWQQLTASDRKNLGLVMSDDGEFWMSLEDFCRNFHKLNVCRNVNNPIFGRKELESVLGCWTVDDDPLMNRSGGCYNNRDTFLQNPQYIFTVPEDGHKVIMSLQQKDLRTYRRMGRPDNYIIGFELFKVEMNRKFRLHHLYIQERAGTSTYIDTRTVFLSKYLKKGNYVLVPTMFQHGRTSEFLLRIFSEVPVQLRELTLDMPKMSCWNLARGYPKVVTQITVHSAEDLEKKYANETVNPYLVIKCGKEEVRSPVQKNTVHAIFDTQAIFYRRTTDIPIIVQVWNSRKFCDQFLGQVTLDADPSDCRDLKSLYLRKKGGPTAKVKQGHISFKVISSDDLTEL
With B1, the binding result is recorded as “binds”.
